These are yes or no findings as the source states them, for the method shown. In cells and extracts the contact can be indirect. Binding can be weak; no strength is given.
Biological target: Endogenous ATM (human) (UniProt Q13315)
Test: co-immunoprecipitation with Flag antibody from 293T cells, immunoblot (FIG. 7F)

By UniProt entry, the sequences of proteins in these tests, tags left out. Where a name states a change or a piece, a line headed by the entry shows the natural chain unless it says otherwise. Residues count along the entry.
UniProt Q13315, residues 2-3056: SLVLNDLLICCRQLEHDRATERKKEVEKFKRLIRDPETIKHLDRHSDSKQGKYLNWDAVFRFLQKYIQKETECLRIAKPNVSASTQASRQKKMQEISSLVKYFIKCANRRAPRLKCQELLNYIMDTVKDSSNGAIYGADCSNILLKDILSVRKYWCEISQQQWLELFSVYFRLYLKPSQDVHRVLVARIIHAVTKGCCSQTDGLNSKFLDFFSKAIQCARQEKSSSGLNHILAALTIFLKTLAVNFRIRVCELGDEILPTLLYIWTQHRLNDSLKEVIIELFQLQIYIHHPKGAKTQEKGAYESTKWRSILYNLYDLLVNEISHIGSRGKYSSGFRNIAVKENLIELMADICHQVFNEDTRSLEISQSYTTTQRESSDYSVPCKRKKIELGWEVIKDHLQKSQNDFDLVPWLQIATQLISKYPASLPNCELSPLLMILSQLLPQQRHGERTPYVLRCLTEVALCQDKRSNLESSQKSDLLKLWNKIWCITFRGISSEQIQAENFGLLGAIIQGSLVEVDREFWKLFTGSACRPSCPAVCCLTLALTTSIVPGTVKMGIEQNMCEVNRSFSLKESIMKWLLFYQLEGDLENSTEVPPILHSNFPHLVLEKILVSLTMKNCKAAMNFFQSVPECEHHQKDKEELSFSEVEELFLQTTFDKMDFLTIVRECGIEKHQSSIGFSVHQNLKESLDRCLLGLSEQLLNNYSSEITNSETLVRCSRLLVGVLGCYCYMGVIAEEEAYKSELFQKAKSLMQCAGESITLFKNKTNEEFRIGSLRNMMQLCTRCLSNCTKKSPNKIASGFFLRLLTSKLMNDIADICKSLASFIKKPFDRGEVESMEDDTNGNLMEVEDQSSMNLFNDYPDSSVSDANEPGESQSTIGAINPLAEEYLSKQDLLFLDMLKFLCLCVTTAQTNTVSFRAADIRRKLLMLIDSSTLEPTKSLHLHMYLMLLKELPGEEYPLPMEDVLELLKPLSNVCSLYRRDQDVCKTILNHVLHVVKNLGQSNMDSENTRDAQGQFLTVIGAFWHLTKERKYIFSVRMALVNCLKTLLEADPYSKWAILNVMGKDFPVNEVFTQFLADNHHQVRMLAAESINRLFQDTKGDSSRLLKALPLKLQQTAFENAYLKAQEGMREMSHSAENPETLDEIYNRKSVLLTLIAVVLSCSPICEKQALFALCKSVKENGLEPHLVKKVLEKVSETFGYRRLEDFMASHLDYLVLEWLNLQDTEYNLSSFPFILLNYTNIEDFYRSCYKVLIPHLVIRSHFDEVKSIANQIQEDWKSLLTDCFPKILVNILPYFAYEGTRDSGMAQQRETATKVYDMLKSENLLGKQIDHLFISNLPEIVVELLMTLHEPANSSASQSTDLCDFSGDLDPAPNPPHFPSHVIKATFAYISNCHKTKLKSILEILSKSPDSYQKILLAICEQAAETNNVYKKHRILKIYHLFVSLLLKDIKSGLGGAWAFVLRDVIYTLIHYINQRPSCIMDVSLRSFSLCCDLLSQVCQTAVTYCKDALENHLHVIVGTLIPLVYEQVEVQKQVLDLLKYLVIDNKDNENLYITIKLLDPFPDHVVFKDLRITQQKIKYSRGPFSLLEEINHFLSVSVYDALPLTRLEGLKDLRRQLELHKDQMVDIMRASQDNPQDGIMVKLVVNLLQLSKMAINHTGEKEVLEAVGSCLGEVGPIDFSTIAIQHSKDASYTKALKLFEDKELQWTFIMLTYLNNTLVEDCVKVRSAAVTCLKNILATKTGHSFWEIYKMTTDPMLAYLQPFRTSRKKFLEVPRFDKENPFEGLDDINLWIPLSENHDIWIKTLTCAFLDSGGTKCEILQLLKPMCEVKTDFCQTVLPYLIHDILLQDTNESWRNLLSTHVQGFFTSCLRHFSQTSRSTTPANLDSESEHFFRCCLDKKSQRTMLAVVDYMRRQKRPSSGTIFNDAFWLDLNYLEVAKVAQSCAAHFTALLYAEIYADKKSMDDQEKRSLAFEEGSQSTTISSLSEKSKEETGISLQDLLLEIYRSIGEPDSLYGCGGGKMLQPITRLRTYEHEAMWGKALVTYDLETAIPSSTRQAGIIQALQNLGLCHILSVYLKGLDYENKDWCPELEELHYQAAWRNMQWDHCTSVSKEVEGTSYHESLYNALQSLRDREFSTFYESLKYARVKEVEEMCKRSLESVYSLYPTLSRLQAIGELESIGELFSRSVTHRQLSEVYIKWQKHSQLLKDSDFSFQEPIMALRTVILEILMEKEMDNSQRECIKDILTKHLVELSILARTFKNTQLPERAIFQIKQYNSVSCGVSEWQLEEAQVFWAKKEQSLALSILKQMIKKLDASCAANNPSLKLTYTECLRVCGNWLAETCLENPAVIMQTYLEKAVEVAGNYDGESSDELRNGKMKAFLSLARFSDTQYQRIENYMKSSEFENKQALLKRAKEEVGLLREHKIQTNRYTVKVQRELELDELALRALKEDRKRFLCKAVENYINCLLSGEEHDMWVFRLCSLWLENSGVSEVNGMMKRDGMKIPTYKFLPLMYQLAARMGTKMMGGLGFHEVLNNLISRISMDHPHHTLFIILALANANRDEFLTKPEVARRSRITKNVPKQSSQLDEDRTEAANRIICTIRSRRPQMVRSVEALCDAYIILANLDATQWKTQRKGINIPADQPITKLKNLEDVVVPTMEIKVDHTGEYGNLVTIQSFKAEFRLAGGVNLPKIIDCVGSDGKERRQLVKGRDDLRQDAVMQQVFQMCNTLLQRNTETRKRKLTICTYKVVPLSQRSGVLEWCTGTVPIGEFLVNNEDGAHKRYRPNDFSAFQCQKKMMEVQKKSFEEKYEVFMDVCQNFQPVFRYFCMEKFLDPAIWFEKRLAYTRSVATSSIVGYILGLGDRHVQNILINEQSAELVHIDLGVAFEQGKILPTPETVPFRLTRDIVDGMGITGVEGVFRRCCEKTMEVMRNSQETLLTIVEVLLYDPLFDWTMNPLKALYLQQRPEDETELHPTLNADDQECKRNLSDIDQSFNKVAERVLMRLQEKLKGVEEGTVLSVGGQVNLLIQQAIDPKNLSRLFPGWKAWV
UniProt Q9H825: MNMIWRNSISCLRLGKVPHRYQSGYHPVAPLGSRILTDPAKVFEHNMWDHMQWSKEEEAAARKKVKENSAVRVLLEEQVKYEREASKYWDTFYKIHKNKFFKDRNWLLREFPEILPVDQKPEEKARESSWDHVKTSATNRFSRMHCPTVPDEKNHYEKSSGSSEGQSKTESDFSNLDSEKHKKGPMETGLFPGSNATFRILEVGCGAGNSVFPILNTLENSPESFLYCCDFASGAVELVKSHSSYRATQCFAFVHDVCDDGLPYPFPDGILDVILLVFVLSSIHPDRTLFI

## Flag-Mettl8 (Flag-tagged human Mettl8, wild type) (from UniProt Q9H825) (enzyme)
  binding: binds
